In article PMC12500958:
No constants are given. Whether binding was seen depends on the method and setting. For some assays here: Binding seen in cells or lysates may run through a third protein. Some results given as binding are weak or reduced against the parent protein; the word gives no strength. For some assays here: Where a sequence is shown, tags or fusion partners need not be part of it.

Protein sequences, listed by entry. Tags and fused reporters are not part of them.
UniProt P60842: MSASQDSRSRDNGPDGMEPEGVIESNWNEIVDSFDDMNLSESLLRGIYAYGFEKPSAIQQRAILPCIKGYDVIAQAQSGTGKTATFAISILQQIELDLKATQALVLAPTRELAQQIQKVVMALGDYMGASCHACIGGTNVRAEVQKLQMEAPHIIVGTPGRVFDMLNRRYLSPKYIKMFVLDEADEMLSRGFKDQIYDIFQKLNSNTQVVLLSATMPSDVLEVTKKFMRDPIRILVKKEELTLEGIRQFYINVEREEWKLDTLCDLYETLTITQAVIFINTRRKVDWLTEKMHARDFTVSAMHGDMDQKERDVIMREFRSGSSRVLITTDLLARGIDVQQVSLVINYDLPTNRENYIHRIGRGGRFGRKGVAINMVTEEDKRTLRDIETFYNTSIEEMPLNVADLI
UniProt Q15717: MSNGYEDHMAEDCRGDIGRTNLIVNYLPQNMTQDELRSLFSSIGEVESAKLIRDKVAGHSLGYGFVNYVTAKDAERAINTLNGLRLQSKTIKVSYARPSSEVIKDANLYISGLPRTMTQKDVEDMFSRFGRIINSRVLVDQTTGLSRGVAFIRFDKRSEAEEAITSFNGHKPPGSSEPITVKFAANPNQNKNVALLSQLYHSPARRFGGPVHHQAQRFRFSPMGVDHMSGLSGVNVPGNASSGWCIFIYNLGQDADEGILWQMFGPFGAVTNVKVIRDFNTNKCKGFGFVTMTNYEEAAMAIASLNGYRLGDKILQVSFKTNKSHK

How the values were obtained:
[1] = target: IGF2BP2 (insulin-like growth factor 2 mRNA-binding protein 2), endogenous (human (endogenous in MDA-MB-231 and Hs 578T)) (UniProt Q9Y6M1); experiment: co-IP; MDA-MB-231 and Hs 578T cells treated with saline or cisplatin for 4 h; IGF2BP2 immunoprecipitated from lysates; blot for HUR and EIF4A1
[2] = target: T1, HIS-tagged IGF2BP2 truncated mutant M3 (401-599), in HEK 293T (UniProt Q9Y6M1); experiment: co-IP; HEK 293T co-transfected with FLAG-USP9X and HIS-tagged full-length or truncated IGF2BP2; IP with HIS beads, blot with anti-FLAG and anti-HIS
T1 sequence: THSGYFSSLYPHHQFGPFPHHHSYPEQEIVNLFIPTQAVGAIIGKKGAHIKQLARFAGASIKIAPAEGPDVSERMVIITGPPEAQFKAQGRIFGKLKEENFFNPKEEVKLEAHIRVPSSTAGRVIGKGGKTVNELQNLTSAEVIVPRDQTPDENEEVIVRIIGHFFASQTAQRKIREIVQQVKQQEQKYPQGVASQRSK

[3] = target: T2, GST-tagged USP9X M3 segment, purified protein (HY-P701431, MCE) (UniProt Q93008); experiment: pull-down; purified GST-USP9X-M3 and HIS-IGF2BP2 incubated in binding buffer at 4 °C for 2 h; pulled down with HIS/GST magnetic beads; Western blot; both purified
T2 sequence: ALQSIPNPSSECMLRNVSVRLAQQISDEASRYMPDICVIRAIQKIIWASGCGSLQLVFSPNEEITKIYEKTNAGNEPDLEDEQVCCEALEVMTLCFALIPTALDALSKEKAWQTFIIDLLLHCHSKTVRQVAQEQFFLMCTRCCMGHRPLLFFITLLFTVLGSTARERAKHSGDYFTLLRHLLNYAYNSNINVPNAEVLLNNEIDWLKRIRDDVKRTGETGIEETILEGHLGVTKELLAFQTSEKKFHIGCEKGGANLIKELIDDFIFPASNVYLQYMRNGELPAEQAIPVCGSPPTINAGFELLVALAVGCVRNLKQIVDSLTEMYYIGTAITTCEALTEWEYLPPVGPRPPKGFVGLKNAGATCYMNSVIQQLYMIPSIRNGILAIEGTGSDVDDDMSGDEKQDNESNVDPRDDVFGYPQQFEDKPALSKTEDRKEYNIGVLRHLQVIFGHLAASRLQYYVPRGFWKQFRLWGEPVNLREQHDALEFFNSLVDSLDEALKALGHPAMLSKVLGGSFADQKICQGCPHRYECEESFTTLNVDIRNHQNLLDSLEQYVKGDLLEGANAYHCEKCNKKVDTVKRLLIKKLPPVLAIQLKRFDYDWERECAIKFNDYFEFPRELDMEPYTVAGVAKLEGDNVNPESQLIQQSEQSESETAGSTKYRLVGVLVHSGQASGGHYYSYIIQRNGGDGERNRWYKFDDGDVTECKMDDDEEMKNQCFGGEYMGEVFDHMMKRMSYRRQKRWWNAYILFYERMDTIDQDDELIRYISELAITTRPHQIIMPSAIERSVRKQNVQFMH

[4] = target: FLAG-tagged USP9X full-length (UniProt Q93008); experiment: co-IP; HEK 293T co-transfected with HIS-IGF2BP2 and FLAG-tagged USP9X full-length or truncated mutants; IP with FLAG beads, blot with anti-HIS and anti-FLAG
[5] = target: T3, FLAG-tagged USP9X truncated mutant M3 (1201-2000) (UniProt Q93008); experiment: as above
T3 sequence: T2 sequence

[6] = target: IGF2BP2 (insulin-like growth factor 2 mRNA-binding protein 2), endogenous (human (endogenous in MDA-MB-231 and Hs 578T)) (UniProt Q9Y6M1); experiment: co-IP; endogenous proteins; MDA-MB-231 and Hs 578T lysates (IP lysis buffer), antibody on protein A/G magnetic beads overnight at 4 °C, Western blot
[7] = target: T4, His-tagged IGF2BP2-M3 overexpressed in IGF2BP2-knockdown MDA-MB-231 and Hs 578T cells (UniProt Q9Y6M1); experiment: co-IP; His-tagged IGF2BP2-M3 overexpressed in IGF2BP2-knockdown MDA-MB-231 and Hs 578T cells treated with cisplatin or saline; IP with anti-HIS antibody; blot for USP9X, WWP1 and HIS-tag
T4 sequence: T1 sequence

For “Eukaryotic Initiation Factor 4A1 (EIF4A1), endogenous (from UniProt P60842 1-406)”, the binding [1] was “binds”.

In the case of “FLAG-tagged USP9X full-length (from UniProt Q93008 1-2554) (enzyme)”, the binding [2] is reported as “binds”.

For “HIS-tagged IGF2BP2 full length (from UniProt Q9Y6M1 1-599)”, the binding [3] was “binds”, the binding [4] was “binds” and the binding [5] was “binds”.

In the case of “Human antigen R (HUR), endogenous (from UniProt Q15717 1-326)”, the binding [1] is reported as “binds”.

With “USP9X (ubiquitin specific peptidase 9 X-linked), endogenous (from UniProt Q93008 1-2554) (enzyme)” the binding [6] was “binds” and the binding [7] was “binds”.
